In PubChem BioAssay AID493014 (National Center for Advancing Translational Sciences (NCATS), 2011) one finds AC50 data, which are given here for 63 compounds.

This assay can be described thus: qHTS Assay to Find Inhibitors of Chronic Active B-Cell Receptor Signaling. Conditions: ABC-DLBCL IkBa-CBG/CBR reporter, luminescence ratio (green luciferase fused to IkBa over red control in TMD8 lymphoma cells), 4 h. Summed up:
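Cell line TMD8 (human ABC DLBCL), stably expressing tet-inducible CBG68-IkBa fusion and CBR; IMDM/0.5% FBS; cpd up to 46 uM; dox induction, 4 h, 37C/5% CO2; dual luminescence; green/red ratio; MG132 control.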
Background: In qHTS, concentration-response curves come from the screen itself.

The mark [1] stands for this setting: measured here: CBR red luminescence, cell number.
The mark [2] stands for this setting: measured here: IkBa-CBG green luminescence.

SMILES strings stand for the structures. Some of the results follow. Further columns of the screen follow, without active or inactive calls. The list favours compounds with an active or inconclusive main result. The note in brackets gives the kind of curve behind each potency; many fits are weak.

One may read the AC50 as the concentration giving half of the maximal activity seen. As to `Ic1ccccc1CN[C@@H]1C2CCN(CC2)[C@@H]1C(c1ccccc1)c1ccccc1`, the AC50 by setting is: under setting [1], 10.3 µM [falling, partial curve]; under setting [2], 23.1 µM [rising, partial curve, poor fit].
For `O=C(C(=O)N1CCN(c2ccccc2F)CC1)c1c[nH]c2ccccc12`, under setting [1], the AC50 is 10 µM [falling, partial curve].
In the case of `CCCCCCCSc1cc(OC)c(CCNC)cc1OC`, the AC50 under setting [1] is 15.8 µM [falling, single point].
For the compound `COc1ccccc1OC(=O)Nc1ccc(Cl)cc1`, the AC50 under setting [1] was 0.447 µM [rising, full curve, poor fit].
Consider `NCCCN1CCN(c2ccccc2)CC1`, for which, under setting [1], the AC50 was 12.6 µM [falling, partial curve, poor fit].
Same read-out and setting: as for `C=CCn1c(O)c(C(CC)=NCC2CCCO2)c(=O)[nH]c1=O` (stereo not drawn), the figure is 7.94 µM [falling, partial curve, poor fit]; as for `CC1CC(OC(=O)c2ccccc2)(c2ccccc2)C(C)CN1C` (stereo not drawn), 3.16 µM [rising, partial curve, poor fit]; as for `CCOC(=O)c1c(-c2ccc(OC)cc2)oc2ccc(OC(=O)N(C)C)cc12`, 20.6 µM [falling, single point].
Same read-out and setting: as for `CCN(CCCNS(=O)(=O)c1ccc2c(c1)oc(=O)n2C)c1cccc(C)c1`, the figure is 14.6 µM [falling, partial curve].
Same read-out and setting: to `CCCNC1=C(C)C(=O)C2=C(C1=O)C(COC(N)=O)[C@]1(OC)C3NC3CN21` (stereo partly drawn) belongs 12.6 µM [rising, partial curve, poor fit].
For the compound `C[C@H]1CCC/C=C/C2C[C@H](O)CC2[C@H](O)/C=C/C(=O)O1` (stereo partly drawn), the AC50 under setting [1] is 0.501 µM [falling, full curve, poor fit].
`N#CC1=C(N)Oc2c(c(=O)oc3ccccc23)C1c1ccc(OC(=O)N2CCOCC2)cc1` (stereo not drawn): the AC50 under setting [1] is 0.631 µM [falling, full curve, poor fit].
On to `O=C(c1ccc2c(c1)ncn2C1CCCCC1)N1CCC2(CC1)OCCO2`, for which the AC50 by setting is: under setting [1], 35.5 µM [rising, single point]; under setting [2], 35.5 µM [falling, partial curve, poor fit].
In the case of `Cc1cc(/C=C2\SC(=S)NC2=O)c(C)n1-c1ccc(O)cc1`, under setting [1], the AC50 was 17.8 µM [falling, partial curve, poor fit].
For the compound `Cc1ccc(Cl)cc1N1CCN(CCN)CC1`, under setting [1], the AC50 is 2.91 µM [falling, single point].
On the same count and under the same terms, as for `Cc1cc(N)n(C2CCN(C)CC2)n1`, the figure is 14.1 µM [rising, partial curve, poor fit]; as for `Cc1ccc(-c2cc(C(F)F)n3ncc(C(=O)N4CCC5(CC4)OCCO5)c3n2)cc1`, 0.0517 µM [rising, full curve, poor fit]; as for `CCCCC(CC)COCCCN=Cc1c(O)[nH]c(=S)[nH]c1=O` (stereo not drawn), 2.51 µM [falling, partial curve, poor fit].
The same measure, in the same setting: as for `CC(=O)c1cccc(NC(=O)CCC2CCCC2)c1`, the figure is 3.55 µM [rising, single point]; as for `O=c1nc(/C=C/c2ccc(Cl)cc2Cl)cc(C(F)(F)F)[nH]1`, 2.51 µM [rising, partial curve, poor fit]; as for `O=C(N/N=C/c1c(O)n(C2CC2)c(=S)[nH]c1=O)c1ccccc1O`, 1.64 µM [falling, full curve].
Same read-out and setting: to `Fc1ccc(CN2CCN(c3ccc(Cl)cc3)CC2)cc1` belongs 15.8 µM [rising, partial curve, poor fit]; to `O=C(NC(=O)c1c(F)cccc1F)Nc1ccccc1SC(F)F`, 7.08 µM [falling, full curve, poor fit].
With `CC(C)OCCCNC(=O)c1c(N)n(CC2CCCO2)c2nc3ccccc3nc12` (stereo not drawn), the AC50 under setting [1] was 14.6 µM [falling, single point].
Regarding `COc1ccc(-[n+]2c(-c3ccccc3)cc(-c3ccc(C)cc3)cc2-c2ccccc2)cc1`, the AC50 under setting [1] is 11.2 µM [falling, single point].
`CN[C@@H]1C[C@@H](c2ccc(Cl)c(Cl)c2)c2ccccc21`: the AC50 is, setting by setting: under setting [1], 11.2 µM [falling, partial curve, poor fit]; under setting [2], 35.5 µM [rising, partial curve, poor fit].
Take `CCC(C)NC(=O)c1c(N)n(Cc2ccc3c(c2)OCO3)c2nc3ccccc3nc12` (stereo not drawn): under setting [1], the AC50 is 5.01 µM [falling, full curve, poor fit].
The same measure, in the same setting: to `CN(C)C(Cc1ccc(C#N)cc1)C(=O)c1ccccc1` (stereo not drawn) belongs 10.3 µM [rising, partial curve]; to `Oc1ccccc1CN(CCc1ccccc1)Cc1ccccc1`, 28.2 µM [rising, single point]; to `O=c1[nH]c(=S)[nH]c(O)c1N=Nc1ccc2c(c1)OCO2`, 2.82 µM [falling, full curve].
As for `O=C(N/N=C/c1c(O)n(Cc2ccco2)c(=O)[nH]c1=O)c1ccccc1O`, under setting [1], the AC50 is 2.82 µM [falling, full curve].
On the same count and under the same terms, to `C=CCOC(=O)c1ccccc1C(=O)OCC=C` belongs 18.4 µM [rising, partial curve, poor fit].
Take `CN1CCN(c2ccc([N+](=O)[O-])c3no[n+]([O-])c23)CC1`: the AC50 is 6.31 µM [falling, full curve, poor fit] under setting [1] and 2.51 µM [rising, full curve, poor fit] under setting [2].
Regarding `CCOCC(=O)NC1CCSC1=O` (stereo not drawn), the AC50 under setting [1] is 35.5 µM [rising, partial curve, poor fit].
Take `CCN(CC)C(=O)Oc1ccc2cc(Br)ccc2c1`: the AC50 under setting [1] was 0.731 µM [rising, partial curve].
Same read-out and setting: to `O=C(N/N=C/c1c(O)n(Cc2ccccc2)c(=O)[nH]c1=O)c1ccccc1O` belongs 2.59 µM [falling, full curve]; to `O=C(C(=O)N1CCOCC1)c1cn(Cc2ccccc2F)c2ccccc12`, 14.1 µM [falling, partial curve, poor fit]; to `C=CCN1C(=O)/C(=C/c2cc(C)n(-c3cccnc3)c2C)C(=O)NC1=S`, 6.51 µM [rising, single point].
The same measure, in the same setting: to `CC1CN=C(Nc2ccc(F)c(Cl)c2)S1` (stereo not drawn) belongs 11.2 µM [rising, partial curve, poor fit]; to `CCOP(=O)(OCC)Oc1cc(C)c(N(C)C)c(C)c1`, 22.4 µM [rising, single point]; to `C1CNC2NCCNC2N1` (stereo not drawn), 2.82 µM [rising, partial curve, poor fit].
In the case of `CCCCCCCCCCOC(=O)Cn1c(COc2ccc(OC)cc2)[n+](C)c2ccccc21`, under setting [1], the half-maximal activity concentration (AC50) is 35.5 µM [falling, single point].
In the case of `CCOP(=S)(OCC)N1CCOCCOCCN(P(=S)(OCC)OCC)CCOCCOCC1`, the AC50 under setting [1] was 17.8 µM [falling, single point].
Turning to `C#C[C@]1(O)CC[C@H]2[C@@H]3CCC4=Cc5nc6nc7ccccc7n6cc5C[C@]4(C)[C@H]3CC[C@@]21C`, the AC50 under setting [1] was 29.1 µM [falling, single point].
On to `Fc1ccc(-c2nc3c(-c4ccc(F)cc4)cnn3cc2CCN2CCOCC2)cc1`, for which the AC50 under setting [1] was 11.2 µM [falling, partial curve].
Same read-out and setting: to `O=P(O)(O)C#Cc1ccccc1` belongs 32.6 µM [rising, single point]; to `CC(C)(C)c1ccc(C(=O)C2CCCN(C3CCC3)C2)cc1` (stereo not drawn), 11.2 µM [rising, partial curve, poor fit]; to `Nc1ccccc1C(=O)c1ccccc1`, 9.2 µM [rising, single point].
As to `Cc1cc([N+](=O)[O-])c2ccccc2[n+]1[O-]`, the concentration at half-maximal activity (AC50) under setting [1] is 12.6 µM [falling, single point].
In the case of `Cc1ccc(-c2csc(N3CCN(CCCn4c(-c5ccncc5)nc5ccccc54)CC3)n2)cc1`, under setting [1], the AC50 is 12.6 µM [falling, partial curve, poor fit].
`Cc1cc(C)cc(N2C(=O)/C(=C\c3ccc(N4CCN(C)CC4)o3)C(=O)NC2=S)c1`: the concentration at half-maximal activity (AC50) under setting [1] was 11.2 µM [rising, partial curve, poor fit].
On to `Cc1cc(NC(=O)CCl)nn1C`, for which the AC50 under setting [1] was 11.2 µM [falling, partial curve, poor fit].
Same read-out and setting: to `CN(C)c1ccc(P(=O)(OCc2ccccc2)C(O)c2ccncc2)cc1` (stereo not drawn) belongs 3.16 µM [rising, single point].
With `CN(C)CC/C=C1/c2ccccc2Sc2ccc(Cl)cc21`, under setting [1], the AC50 was 32.6 µM [falling, partial curve, poor fit].
Still for that read-out and setting: to `CCCC[N+]1(C)[C@@H]2CC(OC(=O)[C@H](CO)c3ccccc3)C[C@H]1[C@@H]1O[C@@H]12` (stereo partly drawn) belongs 4.47 µM [rising, partial curve].
Still for that read-out and setting: to `CCOC(=O)c1ccc(Nc2nc(C(=O)OCC)nc3ccccc23)cc1` belongs 22.4 µM [falling, single point]; to `Cn1ccnc1Sc1nc2ccccc2nc1NS(=O)(=O)c1ccccc1`, 11.2 µM [falling, partial curve, poor fit]; to `CCOc1ccc(/C=N/n2cc(-c3ccccc3)[nH]c2=S)cc1`, 2.82 µM [rising, partial curve].
Consider `O=[N+]([O-])c1ccc(N2CCCCC2)c2ncccc12`, for which the AC50 under setting [1] is 35.5 µM [rising, partial curve, poor fit].
As to `CCN(CC)C(=O)c1ccc(N(Cc2ccccc2)S(C)(=O)=O)cc1`, the AC50 under setting [1] is 35.5 µM [rising, single point].
For `Cn1cccc1/C=C1\C(=O)NC(=O)N(Cc2ccccc2Cl)C1=O`, the AC50 runs as follows: under setting [1], 35.5 µM [rising, single point]; under setting [2], 35.5 µM [falling, single point].
Turning to `CC(NCc1ccc(Cl)cc1Cl)C(O)c1ccccc1` (stereo not drawn), the AC50 under setting [1] was 7.08 µM [rising, partial curve, poor fit].
Same read-out and setting: to `CC[C@@]1(O)C(=O)OCc2c1cc1n(c2=O)Cc2cc3ccccc3nc2-1` belongs 1.41 µM [falling, full curve].
